In PMC4569712:
Results are given in words; binding and its absence hold for the method and conditions named. In cells and extracts the contact can be indirect. Some entries that bind do so weakly or less than the wild type. Sequences can lack the tags named with a protein.

By UniProt entry, the sequences of proteins in these tests, tags left out. Residues count along the entry.
UniProt Q61990, residues 1-81: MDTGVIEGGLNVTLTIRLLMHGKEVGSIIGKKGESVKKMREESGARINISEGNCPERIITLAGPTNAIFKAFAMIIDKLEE

Biological target: Flag-tagged PCBP2 (aa 1–81) (mouse) (UniProt Q61990)
Experiment: co-IP; MEF cells co-transfected with Flag-tagged truncations and the FL HA-tagged partner; IP with anti-Flag antibody

B1: FL HA-tagged IRTKS (protein, UniProt Q9DBJ3 1-514)
chain: MSRGPEEVNRLTENTYRNVMEQFNPGLRNLINLGKNYEKAVNAMILAGKAYYDGVAKIGEIATGSPVSTELGHVLIEISSTHKKLNETLDENFKKFHKDIIHELEKKTELDVKYMNATLKRYQAEHRNKLDSLEKSQAELKKIRRKSQGGRNALKYEHKEIEYVETVTSRQSEIQKFIADGCKEALLEEKRRFCFLVDKHCSFASHIHYYHMQSAELLNSKLPRWQETCCDATKVPEKIMNMIEEIKTPISTPVSGTPQPSPMIERSKMIGKDYDTLSKYSPKMPPAPSVKAYTSPLIDMFNNPATAAQSSEKTNNSTANTGEDPSLQRSVSVATGLNMMKKQKVKTIFPHTAGNNKTLLSFAQGDVLTLLIPEEKDGWLYGEHDTTKARGWFPSSYTKLLEENEAMSVPTPSPAPVRSISTVDLTEKSSVVIPPPDYLECLSMGATSDKKAGAPKVPSASTFRAPVSRPDATSTSPSDANGTAKPPFLSGENPFATVKLRPTVTNDRSAPIIR
B1 was tested, and the binding was “binds”.
